These results are taken from PubChem BioAssay AID743402 (Broad Institute, 2014).

About 140 (12%) of roughly 1,200 compounds were called active.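 The calls were made as follows: active = fitted curve falls past -35% activity change at a dose under twice the top valid dose, in every replicate test; inconclusive = replicate tests disagree on the call; inactive = the rest, including activity in the opposite direction.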 The list lacks most of the strong results.

The assay in a line: CFTR-F508del correctors, dose response, FRT cells, YFP quenching, cherry-pick (AID 743402).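 Also: compounds act as correctors raising surface CFTR-F508del before acute activation.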 As to conditions: FRT CFTR-F508del YFP iodide quenching, 24 h, channel opened with forskolin and a potentiator; at 26 µM (top of the series) unless noted.
As for `COc1ccc(OC)c(/C(C)=N\NC(=O)c2cc3cc(Cl)ccc3n2C)c1`, the activity change, negative = more quenching (active) was inactive: 0%.

As to `C[C@H](CO)N1C[C@H](C)[C@@H](CN(C)C(=O)Nc2ccc(C(F)(F)F)cc2)OCCCC[C@H](C)Oc2ccc(NC(=O)Nc3ccc(F)cc3)cc2C1=O`, the activity change, negative = more quenching (active) is inactive: 25.8%.

`COc1cc(NC(=O)c2csc(N)n2)cc(C(=O)Nc2cccc(C(F)(F)F)c2)c1`: the activity change, negative = more quenching (active) is inactive: 12.5%.

On to `CCCn1c(CN2CCN(C(=O)OCC)CC2)nc2cc(NC(=O)CC)ccc21`, for which the activity change, negative = more quenching (active) was inactive: -3.12%.

For the compound `COc1ccc(-c2cc(=O)c3c(O)cc(O)cc3o2)cc1`, the activity change, negative = more quenching (active) is inactive: 5.42%.

As for `CCN(CC)S(=O)(=O)c1ccc(NC(=O)C2CC(=O)N(c3ccc4c(c3)OCCO4)C2)cc1` (stereo not drawn), the activity change, negative = more quenching (active) is inactive: 0%.

Consider `C=CCN(CC=C)C(=S)Nc1ccc(OC)c(OC)c1`, for which the activity change, negative = more quenching (active) is inactive: 6.46%.

As for `O=C(c1cccnc1)N1CC[C@@H]2[C@H](CO)Nc3ccc(C4=CCCCC4)cc3[C@@H]21`, the activity change, negative = more quenching (active) is inactive: -8.74%.

As for `COc1ccc(NC(=O)CSc2nnc(Cc3cccs3)n2C)cc1`, the activity change, negative = more quenching (active) is inactive: 8.17%.

Take `Cc1cc(N2CCCC2)c(F)cc1/C=C\[N+](=O)[O-]`: the activity change, negative = more quenching (active) is inactive: -17.9%.

For `COc1ccc(C(C)=O)cc1CS(=O)(=O)CC(=O)NCCc1c[nH]c2ccccc12`, the activity change, negative = more quenching (active) is inactive: 20%.

As for `COc1ccc(C#Cc2ccc3c(c2)O[C@@H](CN(C)C(=O)Nc2cccc(OC)c2)[C@H](C)CN([C@H](C)CO)S3(=O)=O)cc1`, the activity change, negative = more quenching (active) is inactive: 7.14%.

Consider `O=C(NCC(c1cccs1)N1CCOCC1)c1ccc(OCc2ccccc2)cc1` (stereo not drawn), for which the activity change, negative = more quenching (active) is inactive: 6.7%.

Turning to `COc1cc(OC)c2c(-c3cccc(-c4ccc(OC)c(OC)c4)c3)cc(=O)oc2c1`, the activity change, negative = more quenching (active) was inactive: -3.33%.

Regarding `COc1cc(C(=O)OCCc2cc3ccccc3c(=O)o2)cc(OC)c1OC`, the activity change, negative = more quenching (active) is inactive: 9.68%.

With `CCN(CC(=O)Nc1ccc(NC(C)=O)cc1)C(=O)c1ccc(N2CCC(C)CC2)c([N+](=O)[O-])c1`, the activity change, negative = more quenching (active) was inactive: 12.9%.

Turning to `Cc1cc(C(=O)CN2C(=O)C(=O)N(Cc3ccccc3)C2=O)c(C)n1Cc1ccccc1`, the activity change, negative = more quenching (active) was inactive: 3.33%.

For `Cc1ccc(S(=O)(=O)NCCCNS(=O)(=O)c2ccc(C)cc2)cc1`, the activity change, negative = more quenching (active) is inactive: 3.33%.

For `COC(CNC(=O)[C@H](Cc1ccccc1)N1Cc2ccccc2C1=O)OC`, the activity change, negative = more quenching (active) is inactive: -3.33%.

For `COc1ccc(N(C)S(=O)(=O)c2cccc(C(=O)NCC3CCCCC3)c2)cc1`, the activity change, negative = more quenching (active) is inactive: 12.9%.

As to `O=C(N/N=C/c1cc2c3c(c1O)CCCN3CCC2)c1ccccc1O`, the activity change, negative = more quenching (active) is inactive: 6.25%.

Regarding `O=C1C=CN(C2OC(CO)C(O)C2O)C(=O)C1` (stereo not drawn), the activity change, negative = more quenching (active) is inactive: 13.3%.

Consider `Cc1ccc(S(=O)(=O)N2CCN(C(=O)COC(=O)/C=C/c3ccc(Cl)cc3)CC2)c(C)c1`, for which the activity change, negative = more quenching (active) is inactive: 14.8%.
